{"source": "PubChem BioAssay (NCATS)", "note": "This is one part of the list. Further columns of the screen follow, without active or inactive calls. The list favours compounds with an active or inconclusive main result. Potencies come from curve fits of mixed quality, noted in brackets.", "data": [{"experiment": "NCATS anti-infectives library activity on the primary C. elegans qHTS viability assay (AID 1745855)", "details": "C. elegans worm area imaging, day 7; measured here: worm area, day 3", "how_it_was_run": "(§1)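 Viability read-out is GFP fluorescence of PE254-GFP-FLuc C. elegans, measured by laser cytometry (488 nm) at day 0, 3 and 7. Ten L1 worms per well were incubated 7 days at 21 °C with compounds and bacterial capsules in S medium.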", "values": [{"smiles": "O=C(Nc1ncc([N+](=O)[O-])s1)c1ccccc1O", "AC50": "0.325 µM [falling, full curve, poor fit]"}, {"smiles": "Cc1cc(C)cc(C(=O)NOCCCCCC(=O)NO)c1", "AC50": "0.0727 µM [falling, full curve, poor fit]"}, {"smiles": "CCN[C@H]1CN(CCCOC)S(=O)(=O)c2sc(S(N)(=O)=O)cc21", "AC50": "0.515 µM [falling, full curve, poor fit]"}, {"smiles": "CC[C@@H](CO)NCCN[C@@H](CC)CO", "AC50": "18.3 µM [falling, partial curve, poor fit]"}, {"smiles": "Nc1nccs1", "AC50": "1.12 µM [falling, partial curve, poor fit]"}, {"smiles": "CC(C)=C1C/C=C(\\C)CC/C=C(\\C)CC1=O", "AC50": "25.8 µM [falling, single point]"}, {"smiles": "O=C(O)c1ccccn1", "AC50": "3.25 µM [rising, partial curve, poor fit]"}]}, {"experiment": "NCATS anti-infectives library activity on the primary C. elegans qHTS viability assay (AID 1745855)", "details": "C. elegans worm area imaging, day 7; measured here: worm number, day 3", "how_it_was_run": "as §1", "values": [{"smiles": "O=C(O)P(=O)(O)O", "AC50": "40.9 µM [rising, single point]"}, {"smiles": "O=C(NCC1(c2nc(-c3ccccc3)cs2)CCOCC1)c1cccc(-c2noc(C(F)(F)F)n2)c1", "AC50": "14.5 µM [falling, partial curve, poor fit]"}, {"smiles": "COc1ccc(C(=O)C2CCN(CC(=O)N(Cc3nc4c(c(=O)[nH]3)COCC4)CC3CC3)CC2)cc1", "AC50": "7.27 µM [falling, partial curve, poor fit]"}, {"smiles": "O=c1cc(CO)occ1O", "AC50": "0.0891 µM [falling, full curve, poor fit]"}, {"smiles": "CC(C)C(=O)OC[C@@]1(N=[N+]=[N-])O[C@@H](n2ccc(N)nc2=O)[C@H](OC(=O)C(C)C)[C@@H]1OC(=O)C(C)C", "AC50": "1.03 µM [falling, full curve, poor fit]"}, {"smiles": "CC(C)Nc1nc2cc(Cl)c(Cl)cc2n1[C@H]1O[C@@H](CO)[C@H](O)[C@@H]1O", "AC50": "25.8 µM [falling, single point]"}, {"smiles": "C[C@@]1(O)[C@H](O)[C@@H](CO)O[C@H]1n1ccc(N)nc1=O", "AC50": "31.6 µM [falling, single point]"}, {"smiles": "CC12CCC(CC1=O)C2(C)C", "note": "(stereo not given)", "AC50": "20.5 µM [falling, single point]"}, {"smiles": "Cc1cc(OCCN2CCOCC2)nn1-c1ccc2ccccc2c1", "AC50": "4.09 µM [falling, partial curve, poor fit]"}, {"smiles": "O=C(O)[C@H]1O[C@@H](Oc2cc3oc(-c4ccc(O)cc4)cc(=O)c3c(O)c2O)[C@H](O)[C@@H](O)[C@@H]1O", "AC50": "0.365 µM [falling, single point]"}, {"smiles": "O=C(OC1OC2COC(=O)c3cc(O)c(O)c(O)c3-c3c(cc(O)c(O)c3O)C(=O)OC(C2O)C1O)c1cc(O)c(O)c(O)c1", "note": "(stereo not given)", "AC50": "29 µM [rising, single point]"}, {"smiles": "O=C(O[C@@H]1Cc2c(O)cc(O)cc2O[C@@H]1c1cc(O)c(O)c(O)c1)c1cc(O)c(O)c(O)c1", "AC50": "0.0916 µM [rising, full curve, poor fit]"}, {"smiles": "C[C@H]1CC[C@@]2(O)C(C)(C)[C@@H]3CC[C@@]2(C)[C@H]1C3", "AC50": "0.409 µM [falling, full curve, poor fit]"}]}]}
